Values from PubChem BioAssay AID602196 (INSERM, 2012)

- Assay: 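Genes whose knock-down alters cisplatin killing of lung cancer cells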
- Cells: human A549 lung cancer cells
- Reagents: siRNA pair against human genes
- Time to read-out: 48 h transfection before cisplatin; time from cisplatin to read-out not stated
- Challenge: cisplatin at a dose killing half of control-siRNA cells; exact dose and duration not given
- Measured: 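Cisplatin cell death as a shift from the 50% death seen with control siRNA; siRNAs toxic or growth-blocking alone scored 0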
- Direction: two-siRNA summed score (-2 to +2): higher = both siRNAs protect from cisplatin killing; -2 means both sensitise; mean protection from cisplatin (shift in death) and protection from cisplatin (shift in death), siRNA C and protection from cisplatin (shift in death), siRNA D: higher = protection from cisplatin killing
- Active means: 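Each siRNA scores 0 if harmful alone by LDH or WST-1, otherwise +1 if it reduces and -1 if it increases cisplatin killing; a gene is active when both siRNAs agree (sum +2 or -2)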
- Calls: active = both siRNAs shift cisplatin killing the same way; inactive = no consistent shift, or siRNA harmful alone
In all, the deposit lists about 23,000 reagents; below is an unselected part. 455 of them (2%) were called active. 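Active includes both protection and sensitisation; some change values fall well beyond the stated -50 to +50 range.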 The record does not give: the amount of reagent.

| gene | two-siRNA summed score (-2 to +2) | mean protection from cisplatin (shift in death) (%) | protection from cisplatin (shift in death), siRNA C (%) | protection from cisplatin (shift in death), siRNA D (%) | Outcome |
| --- | --- | --- | --- | --- | --- |
| STGC3 (retired record) | 0 | 4.9 | -0.6 | 10.5 | inactive |
| LOC389988 | -1 | -5.1 | -11.7 | 1.6 | inactive |
| ZNF433 | 0 | -4.4 | -11.9 | 3.2 | inactive |
| PADI6 | 1 | 15.8 | 16.6 | 15.1 | inactive |
| PCBP3 | 0 | 7.8 | 7.7 | 8 | inactive |
| SLC16A13 | 1 | 22.4 | 26.4 | 18.4 | inactive |
| LOC440780 | 0 | 4.2 | 0.7 | 7.7 | inactive |
| LOC387697 | -1 | -16.3 | -21.1 | -11.4 | inactive |
| PPP2R5C | -1 | 3.5 | -8.5 | 15.5 | inactive |
| LSAMP | 0 | -7 | -19.8 | 5.7 | inactive |
| NLRC3 | 0 | -0.6 | -1.8 | 0.6 | inactive |
| ASAH2 | 0 | -1.7 | 2.7 | -6 | inactive |
| EEF1A2 | 0 | 8.3 | -8.5 | 25.1 | inactive |
| PPARG | 0 | -6.8 | -11.7 | -1.9 | inactive |
| LOC440095 | 1 | 14.5 | 12.9 | 16.1 | inactive |
| RBM15B | 1 | 3.3 | -2.4 | 8.9 | inactive |
| SLC9D1 | 0 | -7.2 | -14 | -0.4 | inactive |
| LOC442428 | 1 | 25 | 26.6 | 23.4 | inactive |
| HECTD4 | 0 | 1.9 | 5.4 | -1.6 | inactive |
| RNF183 | 0 | 10.5 | 15.5 | 5.4 | inactive |
| DHPS | 0 | 9.4 | 20 | -1.1 | inactive |
| RRP36 | 0 | -1.8 | -7.6 | 3.9 | inactive |
| ADAM18 | 0 | 2.1 | 2.5 | 1.7 | inactive |
| EXOSC3 | 1 | 16 | 13.3 | 18.8 | inactive |
| LOC388621 | 0 | 25.1 | 21.8 | 28.4 | inactive |
| LOC440939 | 0 | 9 | 9.5 | 8.5 | inactive |
| LOC126772 | 0 | -5.9 | 1.3 | -13.1 | inactive |
| GRIK4 | 0 | -14.2 | -15.4 | -13.1 | inactive |
| APOC2 | 0 | -5.9 | 0.3 | -12.1 | inactive |
| OTOF | 0 | -15.2 | -36.8 | 6.3 | inactive |
| NCLN | 0 | 1.1 | 3 | -0.8 | inactive |
| VNN1 | 0 | 16 | 31 | 1.1 | inactive |
| LACC1 | 0 | 10.5 | 19.1 | 1.9 | inactive |
| MAP6 | 1 | 12.5 | 2.1 | 22.8 | inactive |
| ATP8A2 | 0 | 5.1 | 7.4 | 2.8 | inactive |
| WDR77 | 0 | -0.2 | 1 | -1.4 | inactive |
| TBX15 | 0 | 5.6 | 1.3 | 10 | inactive |
| CSF2RA | 0 | -5.4 | -0.6 | -10.2 | inactive |
| F2 | -1 | -3.3 | -13.9 | 7.2 | inactive |
| LRCH2 | 0 | -1 | -2 | 0 | inactive |
| RPS13 | 0 | 25 | 23 | 27 | inactive |
| AADAT | 0 | 4.8 | 8.7 | 1 | inactive |
| TRMT2A | -1 | -19.2 | -18.3 | -20.2 | inactive |

Continued, starting with the last 6 of the part before.
| gene | two-siRNA summed score (-2 to +2) | mean protection from cisplatin (shift in death) (%) | protection from cisplatin (shift in death), siRNA C (%) | protection from cisplatin (shift in death), siRNA D (%) | Outcome |
| --- | --- | --- | --- | --- | --- |
| CSF2RA | 0 | -5.4 | -0.6 | -10.2 | inactive |
| F2 | -1 | -3.3 | -13.9 | 7.2 | inactive |
| LRCH2 | 0 | -1 | -2 | 0 | inactive |
| RPS13 | 0 | 25 | 23 | 27 | inactive |
| AADAT | 0 | 4.8 | 8.7 | 1 | inactive |
| TRMT2A | -1 | -19.2 | -18.3 | -20.2 | inactive |
| ENSA | 0 | -2.1 | -1.7 | -2.4 | inactive |
| SH3PXD2A | 0 | 0.6 | 0.1 | 1.1 | inactive |
| LRIT1 | 0 | -8.2 | -10.5 | -5.9 | inactive |
| MT1JP | 0 | 1.6 | -1.7 | 4.9 | inactive |
| MEPCE | 0 | -4.6 | -10.4 | 1.2 | inactive |
| RTP4 | 0 | 2.4 | -10.8 | 15.5 | inactive |
| GPRC5D | 0 | 5.8 | 21.2 | -9.7 | inactive |
| PDPK1 | 0 | -2.3 | 5.4 | -10 | inactive |
| LOC402200 | 0 | -3.3 | 4.2 | -10.7 | inactive |
| IGHV3OR16-12 | 0 | 8.6 | 21.9 | -4.7 | inactive |
| SHROOM4 | 0 | 3.4 | -6.8 | 13.6 | inactive |
| RLN3 | 0 | 6 | -11.5 | 23.6 | inactive |
| EPB41L4A | 0 | -2.3 | 4.5 | -9 | inactive |
| IZUMO2 | 0 | -1 | -1.4 | -0.6 | inactive |
| LOC401551 | 0 | 4.1 | 6.5 | 1.7 | inactive |
| BBS1 | 0 | 6.3 | 8.6 | 4.1 | inactive |
| KLHL32 | 0 | 1.7 | -4 | 7.4 | inactive |
| GPSM2 | 0 | -8.4 | -26.8 | 10 | inactive |
| LOC388459 | 1 | 16.9 | 9.7 | 24.1 | inactive |
| SWSAP1 | 0 | 7.6 | 9.8 | 5.3 | inactive |
| ANAPC15 | 0 | -7.4 | -13.8 | -0.9 | inactive |
| USP30 | 0 | 2 | -4.1 | 8.1 | inactive |
| PIP4P1 | 0 | 5.3 | -8.2 | 18.9 | inactive |
| AKR1C3 | -1 | -13.8 | -20.2 | -7.4 | inactive |
| DDX53 | 0 | 2.2 | 12.3 | -7.9 | inactive |
| LOC440249 | 0 | 9.8 | 1.5 | 18 | inactive |
| NECAB2 | 0 | -0.7 | -3.6 | 2.2 | inactive |
| COX7A2L | 0 | 0.7 | 5 | -3.7 | inactive |
| RANGAP1 | 0 | 6.6 | -3.5 | 16.7 | inactive |
| LOC389831 | 0 | 11.3 | 9.8 | 12.7 | inactive |
